Results from PubChem BioAssay AID330 (DTP/NCI, 2004).
The list is a part of this screen's results and no random one: it gathers tests that were run many times, whatever their T/C, doses with no T/C, and many T/C values between a quarter and a half above the control. Other doses and runs of a compound stand elsewhere. T/C gives the treated animals as a percentage of the vehicle group. Some doses have a count of surviving animals in place of a T/C: the source files T/C as zero there, which appears to mark a toxic dose or a test without result, not a measured value. Some survivor counts are full or nearly so, which does not show that the dose was tolerated: the source hardly ever lists a survival T/C far under the control, and the zero likely stands for such cases as well. Counts of survivors are from the toxicity check (mostly the fifth day) where no day follows; animals may have died later. Schedule codes are those of the source, taken here to give the interval after Q, in days (D) or hours (H), and the number of doses after X.

System: P388 leukemia ip, CD2F1 mice, survival T/C
Assay: NCI In Vivo Anticancer Drug Screen. Data for tumor model P388 Leukemia (intraperitoneal) in CD2F1 (CDF1) mice
Details: T/C endpoint: median survival time, higher T/C = longer survival
[1] = dose: 100.0 mg/kg/injection, schedule: Q01DX009 (ip), vehicle: saline
[2] = dose: 200.0 mg/kg/injection, schedule: Q01DX009 (ip), vehicle: saline
[3] = dose: 200.0 mg/kg/injection, schedule: Q01DX005 (ip), vehicle: Klucel (hydroxypropylcellulose) (HPC)
[4] = dose: 200.0 mg/kg/injection, schedule: Q01DX005 (ip), vehicle: saline with Tween-80
[5] = dose: 200.0 mg/kg/injection, schedule: Q01DX009 (ip), vehicle: saline with Tween-80

`CCCCC[CH2][GeH]([CH2]CCCCC)[O][GeH]([CH2]CCCCC)[CH2]CCCCC` was tested, and the survivor count [1] was 4 of 6 and the survivor count [2] was 2 of 6.

With `O=C(O)c1ccccc1C(=O)O.[Cu+2].[NH-]CCC[NH-]` the survivor count (dose: 25.0 mg/kg/injection, schedule: Q04DX002 (ip), vehicle: saline with Tween-80) was 0 of 6 and the survivor count (dose: 50.0 mg/kg/injection, schedule: Q04DX002 (ip), vehicle: saline with Tween-80) was 0 of 6.

`Cc1c[nH]c2nc(C)n(-c3ccccc3F)c(=N)c12` was tested, and the survivor count [3] was 1 of 6.

For `COc1c(OP2(=S)OCC(C)(C)CO2)cnn(C2CCCCC2)c1=O`, the survivor count [4] was 6 of 6.

In the case of `CNc1ccc(N=Nc2ccncc2C)cc1C`, the survivor count (dose: 1.56 mg/kg/injection, schedule: Q01DX009 (ip), vehicle: DMSO) is reported as 6 of 6, the survivor count (dose: 3.12 mg/kg/injection, schedule: Q01DX009 (ip), vehicle: DMSO) is reported as 6 of 6 and the survivor count (dose: 6.25 mg/kg/injection, schedule: Q01DX009 (ip), vehicle: DMSO) is reported as 6 of 6. The survivor count (dose: 50.0 mg/kg/injection, schedule: Q01DX009 (ip), vehicle: DMSO) was 4 of 6.

With `CC(=O)OCC1OC(n2cnc3c(N)ncnc32)C2OC(C)(C)OC12` (stereo not given) the survivor count [3] was 3 of 6.

With `COc1ccc(OC)c(NC2=C(Cl)C(=O)C(Nc3cc(OC)ccc3OC)=C(Cl)C2=O)c1` the survivor count (dose: 50.0 mg/kg/injection, schedule: Q01DX009 (ip), vehicle: saline with Tween-80) was 6 of 6.

In the case of `CCN(CC)S(=O)(=O)c1ccc(OC)c(N)c1`, the survivor count (dose: 400.0 mg/kg/injection, schedule: Q04DX003 (ip), vehicle: saline with Tween-80) is reported as 4 of 6.

For `c1ccc(-c2c[n+]3ccccc3n2-c2ccccc2)cc1`, the survivor count (dose: 12.5 mg/kg/injection, schedule: Q01DX009 (ip), vehicle: saline) was 0 of 6, the survivor count (dose: 25.0 mg/kg/injection, schedule: Q01DX009 (ip), vehicle: saline) was 0 of 6 and the survivor count (dose: 50.0 mg/kg/injection, schedule: Q01DX009 (ip), vehicle: saline) was 0 of 6. For the same compound, the survivor count [1] was 0 of 6 and the survivor count [2] was 0 of 6.

With `Cc1nn(-c2ccccc2)c2oc3ccc(Cl)cc3c(=O)c12` the survivor count (dose: 240.0 mg/kg/injection, schedule: Q01DX005 (ip), vehicle: saline) was 5 of 6.

`Clc1ccc(OCC(Cn2ccnc2)c2ccc(Cl)cc2)cc1` (stereo not given) was tested, and the survivor count [5] was 3 of 6.

With `O=C(Nn1c(=S)[nH]c2ccccc2c1=O)c1ccc([N+](=O)[O-])cc1` the survivor count (dose: 240.0 mg/kg/injection, schedule: Q01DX005 (ip), vehicle: Klucel + Tween-80) was 5 of 6.

With `Cc1c[nH]c2nc(C)n(-c3ccc(Cl)cc3)c(=N)c12` the survivor count (dose: 50.0 mg/kg/injection, schedule: Q01DX005 (ip), vehicle: Klucel (hydroxypropylcellulose) (HPC)) was 3 of 6, the survivor count (dose: 100.0 mg/kg/injection, schedule: Q01DX005 (ip), vehicle: Klucel (hydroxypropylcellulose) (HPC)) was 0 of 6 and the survivor count [3] was 0 of 6.

For `OC(COc1c2ccccc2nc2ccccc12)CN1CCOCC1` (stereo not given), the survivor count [4] was 6 of 6.

In the case of `CN(C(=S)S(C)(=O)=O)c1ccccc1`, the survivor count (dose: 12.5 mg/kg/injection, schedule: Q01DX009 (ip), vehicle: Klucel (hydroxypropylcellulose) (HPC)) is reported as 4 of 6, the survivor count (dose: 25.0 mg/kg/injection, schedule: Q01DX009 (ip), vehicle: Klucel (hydroxypropylcellulose) (HPC)) is reported as 0 of 6 and the survivor count (dose: 50.0 mg/kg/injection, schedule: Q01DX009 (ip), vehicle: Klucel (hydroxypropylcellulose) (HPC)) is reported as 0 of 6. The survivor count (dose: 100.0 mg/kg/injection, schedule: Q01DX009 (ip), vehicle: Klucel (hydroxypropylcellulose) (HPC)) was 0 of 6 and the survivor count (dose: 200.0 mg/kg/injection, schedule: Q01DX009 (ip), vehicle: Klucel (hydroxypropylcellulose) (HPC)) was 0 of 6.

For `N#C/C(=N\Nc1ccc(Cl)cc1)C(=O)C1CC1`, the survivor count (dose: 120.0 mg/kg/injection, schedule: Q01DX005 (ip), vehicle: Klucel (hydroxypropylcellulose) (HPC)) was 0 of 6 and the survivor count (dose: 240.0 mg/kg/injection, schedule: Q01DX005 (ip), vehicle: Klucel (hydroxypropylcellulose) (HPC)) was 0 of 6.

`Cc1ccc(S(=O)(=O)N(CCC(c2ccccc2)c2ccccc2)S(=O)(=O)c2ccc(C)cc2)cc1` was tested, and the survivor count (dose: 100.0 mg/kg/injection, schedule: Q01DX009 (ip), vehicle: saline with Tween-80) was 6 of 6, the survivor count [5] was 6 of 6 and the survivor count (dose: 400.0 mg/kg/injection, schedule: Q01DX009 (ip), vehicle: saline with Tween-80) was 6 of 6.
